The results in this text go back to patent US12622912B2, “Application of pyrido[1,2-a]pyrimidinone analog” (GUANGZHOU JOYO PHARMATECH CO., LTD, priority 2021, dated 2026).

As a reminder, the IC50 is the point on the concentration scale where inhibition reaches its midpoint.

Assay [1] concerns TCCSUP PIK3CA-mutated bladder cancer cell line. The assay can be described thus: CTG cell proliferation, TCCSUP. Format: cell-based. The following applies: Homo sapiens, TCC-SUP, 72 h, read-out: Absolute IC50. How it is done:
(§1) (2) Reagents • 1) FBS (fetal bovine serum) (purchased from ExCell, product number: FND500); • 2) MEM medium (purchased from Hyclone, product number: SH30024.01; • 3) MEM NEAA (purchased from Gibco, product number: 11140-050); • 4) Sodium pyruvate (purchased from Gibco). […]
(§2) Step 1: Cells in exponential growth phase were harvested, and viable cells were counted with a Vi-Cell XR cytometer. […]
(§3) Step 3: After 72 hours of drug treatment, 50 μL (½ culture volume) CTG solution that was melted and equilibrated to room temperature was added to each well according to the CTG operation instruction. […] After 10 minutes, the fluorescence signal value was measured with an Envision2104 plate reader.
(§4) Cell survival rate was calculated using the formula: Vsample/Vvehicle control×100%. Where, Vsample was the reading of the drug treatment group, and Vvehicle control was the average value of the solvent control group. GraphPad Prism 5.0 software was used, and a S-type dosage-survival rate curve was drawn using a nonlinear regression model and IC50 value was calculated.

The test system of assay [2] is J82 PIK3CA-mutated bladder cancer cell line. The assay is described as follows: CTG cell proliferation, J82. Format: cell-based. The following applies: 72 h, read-out: Absolute IC50. The procedure:
as §1, §2, §3, §4

`COc1cc(OC)cc(N(CCNC(C)C)c2ccc3ncc(-c4cnn(C)c4)nc3c2)c1` [Erdafitinib]: the IC50 in assay [1] and in assay [2] was more than 3000 nM in each case.
